Source: article PMC5085121
No constants are given. Whether binding was seen depends on the method and setting. Binding seen in cells or lysates may run through a third protein. Some binding calls cover weakened binding; strength is not graded here. Where a sequence is shown, tags or fusion partners need not be part of it.

Amino acid sequences for entries named in this document (tags omitted). A change or cut given only in a name is not applied to a line headed by its entry. Chains listed by the source or under a name are the forms on record and can include a tag or linker.
HA-tagged constitutively-activated Rheb(64L) (Q15382, form named): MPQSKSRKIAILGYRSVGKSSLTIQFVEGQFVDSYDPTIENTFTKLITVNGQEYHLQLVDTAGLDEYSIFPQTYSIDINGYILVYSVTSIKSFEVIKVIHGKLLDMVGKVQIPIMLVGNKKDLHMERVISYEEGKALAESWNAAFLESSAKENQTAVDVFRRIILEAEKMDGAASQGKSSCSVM

Biological target: T1, GFP-tagged RASSF1A (UniProt Q9NS23)
T1 sequence: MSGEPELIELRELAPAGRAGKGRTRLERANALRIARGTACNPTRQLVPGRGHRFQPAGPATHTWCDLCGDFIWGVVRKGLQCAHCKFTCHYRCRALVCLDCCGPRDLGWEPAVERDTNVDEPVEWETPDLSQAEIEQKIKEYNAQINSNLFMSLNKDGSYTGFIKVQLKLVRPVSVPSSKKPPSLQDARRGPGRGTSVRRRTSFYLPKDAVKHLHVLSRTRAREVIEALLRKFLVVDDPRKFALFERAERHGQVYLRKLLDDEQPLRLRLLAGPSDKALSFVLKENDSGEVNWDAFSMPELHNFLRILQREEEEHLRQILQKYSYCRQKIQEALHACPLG
Assay: co-IP; HEK-293T cells co-transfected with HA-Rheb (wild type or 64L) and GFP-RASSF1A, lysed 24 h later in modified RIPA buffer (150mM NaCl, 50mM Tris, pH 7.5, 1% NP-40); precleared lysates immunoprecipitated for GFP (GFP-Trap agarose beads), blotted with anti-HA and anti-GFP

| binding | Substance |
| --- | --- |
| binds | HA-tagged constitutively-activated Rheb(64L) (from UniProt Q15382 1-184) |
| binds weakly | HA-tagged wild type Rheb (from UniProt Q15382 1-184) |
